In assay [1] the target is T1, RNF128, RING finger protein 128 (human (endogenous in HL-60)) (UniProt Q8TEB7).
T1 sequence: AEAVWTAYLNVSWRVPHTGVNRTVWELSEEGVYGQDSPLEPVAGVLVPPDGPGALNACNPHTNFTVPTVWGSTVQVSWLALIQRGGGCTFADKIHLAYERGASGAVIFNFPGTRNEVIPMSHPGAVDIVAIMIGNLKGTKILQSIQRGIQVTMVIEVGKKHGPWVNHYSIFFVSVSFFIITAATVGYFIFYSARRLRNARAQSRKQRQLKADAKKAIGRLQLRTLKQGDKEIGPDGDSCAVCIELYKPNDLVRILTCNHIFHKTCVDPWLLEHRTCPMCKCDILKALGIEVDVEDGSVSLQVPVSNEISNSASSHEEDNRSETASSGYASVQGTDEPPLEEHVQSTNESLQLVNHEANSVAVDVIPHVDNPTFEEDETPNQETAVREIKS
The assay can be described thus: co-IP; endogenous proteins; extracts from differentiated HL-60 cells immunoprecipitated with anti-RNF128, anti-MPO or anti-IgG overnight at 4 °C, Dynabeads Protein G, washes with SNNTE buffer (0.5 M NaCl, 1% NP-40); immunoblot.

Sequences of proteins named here, by UniProt entry; tags and fusion partners are left off. Residues count along the entry.
UniProt P05164, residues 49-745: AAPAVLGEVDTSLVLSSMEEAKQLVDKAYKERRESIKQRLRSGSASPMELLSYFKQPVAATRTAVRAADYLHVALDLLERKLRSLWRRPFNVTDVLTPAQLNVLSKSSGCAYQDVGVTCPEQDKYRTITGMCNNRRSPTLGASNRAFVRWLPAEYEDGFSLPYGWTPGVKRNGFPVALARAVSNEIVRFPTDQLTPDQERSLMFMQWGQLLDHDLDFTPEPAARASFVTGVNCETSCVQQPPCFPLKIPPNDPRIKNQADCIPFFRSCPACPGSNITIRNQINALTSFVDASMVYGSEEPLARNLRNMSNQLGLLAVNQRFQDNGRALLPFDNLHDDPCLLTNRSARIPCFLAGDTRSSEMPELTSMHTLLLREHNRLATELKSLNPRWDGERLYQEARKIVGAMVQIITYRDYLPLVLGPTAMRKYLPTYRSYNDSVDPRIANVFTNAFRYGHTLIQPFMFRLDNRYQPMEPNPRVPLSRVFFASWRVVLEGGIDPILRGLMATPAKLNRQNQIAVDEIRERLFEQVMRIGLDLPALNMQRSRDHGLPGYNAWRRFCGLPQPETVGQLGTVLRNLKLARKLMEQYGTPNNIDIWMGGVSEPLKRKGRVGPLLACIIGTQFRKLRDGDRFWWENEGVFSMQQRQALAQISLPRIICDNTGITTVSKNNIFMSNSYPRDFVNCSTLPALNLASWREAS
UniProt Q9QUK6, residues 26-835: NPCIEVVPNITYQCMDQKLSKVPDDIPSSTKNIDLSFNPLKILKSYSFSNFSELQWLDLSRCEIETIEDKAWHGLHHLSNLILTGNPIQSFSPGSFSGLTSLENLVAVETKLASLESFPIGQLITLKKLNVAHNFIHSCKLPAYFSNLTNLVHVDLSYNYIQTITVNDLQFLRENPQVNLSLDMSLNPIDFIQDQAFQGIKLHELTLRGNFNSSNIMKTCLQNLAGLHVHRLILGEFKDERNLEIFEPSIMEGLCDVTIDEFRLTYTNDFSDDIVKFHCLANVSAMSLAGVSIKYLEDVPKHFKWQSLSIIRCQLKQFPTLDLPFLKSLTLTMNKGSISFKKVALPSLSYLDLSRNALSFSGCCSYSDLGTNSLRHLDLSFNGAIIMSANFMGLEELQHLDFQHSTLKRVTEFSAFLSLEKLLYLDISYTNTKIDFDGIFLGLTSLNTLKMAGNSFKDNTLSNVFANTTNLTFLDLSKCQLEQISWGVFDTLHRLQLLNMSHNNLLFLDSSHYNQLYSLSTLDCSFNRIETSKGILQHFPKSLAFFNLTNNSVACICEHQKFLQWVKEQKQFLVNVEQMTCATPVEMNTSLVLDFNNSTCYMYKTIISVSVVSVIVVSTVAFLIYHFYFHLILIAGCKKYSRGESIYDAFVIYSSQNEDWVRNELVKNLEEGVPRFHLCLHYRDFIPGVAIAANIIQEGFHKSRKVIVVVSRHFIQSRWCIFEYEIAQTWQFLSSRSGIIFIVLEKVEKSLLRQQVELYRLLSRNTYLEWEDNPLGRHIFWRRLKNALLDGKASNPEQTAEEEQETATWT

For assay [2], the target named is T2, RNF128, RING finger protein 128 (mouse (endogenous in MH-S)) (UniProt Q9D304).
T2 sequence: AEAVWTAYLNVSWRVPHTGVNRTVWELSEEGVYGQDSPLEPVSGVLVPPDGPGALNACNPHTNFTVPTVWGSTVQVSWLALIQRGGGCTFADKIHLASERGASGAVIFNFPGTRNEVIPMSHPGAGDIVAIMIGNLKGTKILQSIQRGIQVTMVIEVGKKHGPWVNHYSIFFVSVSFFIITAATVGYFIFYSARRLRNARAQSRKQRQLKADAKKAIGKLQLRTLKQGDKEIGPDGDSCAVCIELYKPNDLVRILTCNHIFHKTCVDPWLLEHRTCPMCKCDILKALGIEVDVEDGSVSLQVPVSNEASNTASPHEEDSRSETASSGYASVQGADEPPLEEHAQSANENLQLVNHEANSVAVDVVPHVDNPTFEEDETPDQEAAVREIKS
Nature of the assay: co-IP; endogenous proteins; extracts from MH-S cells immunoprecipitated with anti-RNF128, anti-TLR4 or anti-IgG overnight at 4 °C, Dynabeads Protein G, washes with SNNTE buffer (0.5 M NaCl, 1% NP-40); immunoblot.

Assay [3] concerns the target Myeloperoxidase (human (endogenous in HL-60)) (UniProt P05164). The assay can be described thus: co-IP; endogenous proteins; extracts from differentiated HL-60 cells immunoprecipitated with anti-RNF128, anti-MPO or anti-IgG overnight at 4 °C, Dynabeads Protein G, washes with SNNTE buffer (0.5 M NaCl, 1% NP-40); immunoblot.
Assay [4] addresses TLR4 (mouse (endogenous in MH-S)) (UniProt Q9QUK6). The assay can be described thus: co-IP; endogenous proteins; extracts from MH-S cells immunoprecipitated with anti-RNF128, anti-TLR4 or anti-IgG overnight at 4 °C, Dynabeads Protein G, washes with SNNTE buffer (0.5 M NaCl, 1% NP-40); immunoblot. (Immunoblotting shows a protein as a band on a membrane.)

Results are given in words; binding and its absence hold for the method and conditions named. Binding seen in cells or lysates may run through a third protein. Some binding calls cover weakened binding; strength is not graded here.

In the case of “Myeloperoxidase (from UniProt P05164 49-745)”, the binding entry in assay [1] is reported as “binds”.

In the case of “TLR4 (from UniProt Q9QUK6 26-835) (receptor)”, in assay [2], the binding result is on record as “binds”.

B1: RNF128, RING finger protein 128 (protein, UniProt Q8TEB7 39-428)
chain: T1 sequence
For B1, the binding result in assay [3] is reported as “binds”.

B2: RNF128, RING finger protein 128 (protein, UniProt Q9D304 39-428)
chain: T2 sequence
As to B2, in assay [4], the binding entry is on record as “binds”.

The record behind these values is article PMC10284794.
